# Results of single-concentration screens

Chains of the proteins cited; added tags and fusions are not shown. Residues count along the entry.
UniProt Q4DA54, 1-478: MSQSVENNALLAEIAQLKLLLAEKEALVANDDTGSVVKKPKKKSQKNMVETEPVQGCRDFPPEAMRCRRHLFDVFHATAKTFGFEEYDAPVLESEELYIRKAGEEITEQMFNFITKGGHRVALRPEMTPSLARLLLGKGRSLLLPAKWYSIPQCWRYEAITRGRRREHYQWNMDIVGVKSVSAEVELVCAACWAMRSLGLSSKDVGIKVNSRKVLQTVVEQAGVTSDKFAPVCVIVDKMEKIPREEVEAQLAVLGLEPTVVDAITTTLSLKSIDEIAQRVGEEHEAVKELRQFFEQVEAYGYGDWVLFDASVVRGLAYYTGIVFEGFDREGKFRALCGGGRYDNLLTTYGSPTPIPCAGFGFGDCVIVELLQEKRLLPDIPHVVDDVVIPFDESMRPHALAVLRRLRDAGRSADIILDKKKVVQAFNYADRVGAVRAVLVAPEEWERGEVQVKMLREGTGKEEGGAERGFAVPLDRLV

Results are given as percent effect.
How 0% and 100% were set is not recorded. Most values in the screen are low, and negative values occur.
Compounds were drawn at random from those tested, without regard to their results.

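Enzyme assay of histidyl-tRNA synthetase; the read-out is not stated. Target: Histidine-tRNA ligase, Trypanosoma cruzi CL Brener (UniProt Q4DA54). Concentration: 30 µM. Higher reads as stronger inhibition (inferred: compounds with an IC50 in retests scored well above the rest). Of about 69,000 compounds tested this way, about 31 (0.045%) reached 50% or more in at least one test.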

compound,effect
O=S(=O)(CCCc1ccccc1)Cc1nnnn1C1CC1,8.621%
CCCc1cc(C(=O)NCCC2=CCCCC2)[nH]n1,2.299%
Cc1cc(CN2CC[C@H]3OCC[C@@]3(C(=O)NC(C)C)C2)no1,2.174%
Cn1c2c(c(=O)n1C)CN(C(=O)c1cccc(F)c1)CCC2,2.513%
CCN(CC1CCOC1)C(=O)c1ccc(-c2ccsc2)nc1C (centres unmarked),0.4464%
Cc1cc(S(C)(=O)=O)c(C)c(S(=O)(=O)NCC2CCCO2)c1 (centres unmarked),6.897%
O=C(O)c1ccc(F)c(S(=O)(=O)Nc2c(F)cccc2-n2cccn2)c1,0.4149%
Cc1cnc(C)c(N2CCN(CCCc3ccncc3)CC2)n1,3.061%
Cc1cnc(C)c(N2CCN(CCCc3[nH]nc(C)c3C)CC2)n1,4.082%
FC(F)CNc1cnc(C2CCCN2)cn1 (centres unmarked),6.818%
CCN1CCN(c2ccc(NC(=O)CC(C)C)c(C)c2)CC1,8.173%
O=C(CCO)N1C[C@H]2CN(c3ccccc3)C(=O)[C@H]2C1,0%
CCn1ccnc1CN1CCN(C(C)C(=O)N2CCCCCC2)CC1 (centres unmarked),1.156%
CCC(=O)c1ccccc1NN1c2ccccc2C(=O)C1(C)OC (centres unmarked),4.969%
CN(C)C(=O)CN1CCCC12CCCN(c1ncc(F)cn1)C2 (centres unmarked),6.863%
CC(NCc1cnc(N2CCOCC2)s1)c1ccc(Cl)s1 (centres unmarked),1.786%
COCCN(CCc1ccccc1)Cc1nc2c(cnn2C)c(=O)[nH]1,1.504%
CCN1CCN(C2CCN(Cc3nc(C4CC4)no3)CC2)C1=O,2.857%
Cn1c(CCNC(=O)Nc2cn[nH]c2)nc2ccc(F)cc21,8.235%
COCC(=O)N1CCC(=O)N(C2CCCC2)Cc2cc(F)ccc21,1.124%
Cc1nc(CC(C)C)cc(C(=O)N2C[C@@H](N(C)C)[C@H](C(C)C)C2)n1,7.407%
CN(C)CC1(O)CCN(C(=O)Cc2ccc3c(c2)CCCC3)C1 (centres unmarked),3.714%
CC(c1ccccc1)N(C)C(=O)CN1CCCc2cccc(F)c21 (centres unmarked),5.759%
COc1cccc(C(=O)N2CCCCC2c2nccs2)c1OC (centres unmarked),4.36%
Cc1c(C(=O)N2CC(C)(C)C2(C)C)nnn1-c1cccc2cnccc12,6.329%
O=C(O)Cn1ccc(=O)c2ccccc21,7.921%
COc1cccc(Cn2ncnc2CCSC)c1,1.288%
O=C(NCc1ccccc1CN1CCCC1)Nc1cccnc1,5.155%
O=C(NCC(c1ccccc1)N1CCOCC1)Nc1cn[nH]c1 (centres unmarked),7.289%
CCCN(CCC)c1ncc(S(=O)(=O)c2ccc(OC)cc2)c(N)n1,10.31%
CCNC(=O)N(C)C1CCN(Cc2ncc(C)c(OC)c2C)CC1,4.571%
CC(=O)N1CCCC(c2ccc(N3CCOCC3)cn2)C1 (centres unmarked),3.745%
COc1cccc(C(=O)N2CCC(Nc3ccc(C)nn3)CC2)c1,3.38%
Cn1cc(C[C@H]2[C@@H](O)CCN2C(=O)C2CC=CC2)cn1,4.348%
Cc1ccc(C(=O)O)cc1CNC(=O)CN1CC[C@](C)(O)C(C)(C)C1,3.867%
Cn1ccnc1-c1nc(N2CCCCC2)ncc1-c1ccccc1F,3.39%
CN1CCc2c(c(COc3cncnc3)nn2CC2CC2)C1,-2.151%
CC(C)c1ocnc1C(=O)Nc1cccc(Cn2ccccc2=O)c1,6.03%
Cc1cnn(CC2CN(Cc3nc(-c4ccsc4)no3)CCO2)c1 (centres unmarked),1.775%
Nc1nc(C2CCN(C(=O)c3cnccn3)CC2)cs1,3.333%
CN(C)CC1(O)CCN(C(=O)c2cnc(CN3CCCC3)s2)C1 (centres unmarked),5.882%
Clc1cccc(N2CCC(NCc3cc[nH]n3)C2)c1 (centres unmarked),9.74%
CCc1ccc(CN(C)C(=O)C2CC(=O)N(c3cccc(O)c3)C2)nc1 (centres unmarked),2.513%
CCC(NC(=O)c1nn(C)cc1C(=O)O)c1ccc(C)cc1 (centres unmarked),4.624%
O=C1CCN(C(=O)C2(c3ccc(F)cc3)CCOCC2)CCN1,2.564%
COCCOC1CCN(C(=O)NCc2cc(C)oc2C)CC1,2.222%
Cc1cc(CN2CCC(C3CCN(CC(C)C)CC3)C2)[nH]n1 (centres unmarked),7.2%
CC1CCc2nn(CCNC(=O)Cc3cccs3)c(=O)cc2C1 (centres unmarked),4.651%
O=C(NCCCC(=O)N1Cc2ccccc2C1)NCc1ccsc1,5.419%
Cn1ccc2c(C(=O)NCCCN3CCOCC3)cccc21,-3.659%
CC(=O)N1N=C(COc2ccc(C)cc2)OC1c1ccc(N(C)C)cc1 (centres unmarked),0.5025%
COc1ccc(C2CNCCN2C(=O)c2cccc3ncccc23)cc1 (centres unmarked),-1.55%
O=C(c1ccc2[nH]ccc2c1)N1CCn2cc(CN3CCCC3)nc2C1,12.75%
CC1=NN(c2ccc(C(=O)OCCNC(=O)c3ccncc3)cc2)CC1,6.329%
Cc1nccn1-c1cc(CNC(=O)C2CCCO2)ccn1 (centres unmarked),2.312%
CC(C)c1ccc(/C=C/CC(=O)NC2CCS(=O)(=O)CC2)cc1,8.642%
Cc1cc(N2CCOC(C)(C(=O)N(C)C)C2)ncn1 (centres unmarked),4.135%
COc1cc(C(=O)N2CCC3(CC2)Nc2ccccc2NC3=O)ccn1,3.518%
O=C(NCc1ccc2c(c1)OCO2)c1ccc(N2CCCCC2)nn1,4.819%
CCc1nc(C)c(C(=O)NCCn2nc3ccccn3c2=O)s1,5.539%
CC(C)c1nn(C)c(N(C)C)c1CNCc1cccnc1,2.326%
NC(=O)CN(Cc1ncc(-c2ccc(F)cc2)o1)C1CCCC1,6.077%
CN(C)C(=O)[C@@H]1CC[C@@H]2[C@@H](CCN2Cc2ccccn2)O1,7.362%
CC(=O)Nc1ccc(S(=O)(=O)Nc2c(F)cccc2F)cc1,2.793%
COC1(CNC(=O)NCCOc2ccccc2)CCSC1 (centres unmarked),1.205%
Cc1cc(C)n(CC(C)NC2CCN(Cc3cccc(O)c3)CC2)n1 (centres unmarked),3.352%
CC(O)c1cccc(N2CCC3(CC2)Nc2ccccc2NC3=O)n1 (centres unmarked),3.797%
Cc1ccc(S(=O)(=O)NCCc2nnc[nH]2)c2cccnc12,11.67%

For reference, 7 entries once more:

| compound | effect |
|---|---|
| `CCCc1cc(C(=O)NCCC2=CCCCC2)[nH]n1` | 2.299% |
| `CCN(CC1CCOC1)C(=O)c1ccc(-c2ccsc2)nc1C` (centres unmarked) | 0.4464% |
| `Cc1nccn1-c1cc(CNC(=O)C2CCCO2)ccn1` (centres unmarked) | 2.312% |
| `O=C(CCO)N1C[C@H]2CN(c3ccccc3)C(=O)[C@H]2C1` | 0% |
| `CC(c1ccccc1)N(C)C(=O)CN1CCCc2cccc(F)c21` (centres unmarked) | 5.759% |
| `COCCOC1CCN(C(=O)NCc2cc(C)oc2C)CC1` | 2.222% |
| `CCC(=O)c1ccccc1NN1c2ccccc2C(=O)C1(C)OC` (centres unmarked) | 4.969% |

From ChEMBL document CHEMBL3988442, “University of Dundee, Small-Polar-MMV Screening Library” (2021).